Results from publication PMC12062478, “Screening herbal and natural product libraries to aid discovery of novel allosteric modulators of human P2X7” (Purinergic Signalling, 2024).
For part of its entries the source gives two or more results. The list is limited to them. The source may hold further records. Values that stand side by side do not match, cause unknown; they may come from other doses, times, organisms or constructs than stated.

Protein sequences, listed by entry. Tags and fused reporters are not part of them.
UniProt Q99572, whole entry: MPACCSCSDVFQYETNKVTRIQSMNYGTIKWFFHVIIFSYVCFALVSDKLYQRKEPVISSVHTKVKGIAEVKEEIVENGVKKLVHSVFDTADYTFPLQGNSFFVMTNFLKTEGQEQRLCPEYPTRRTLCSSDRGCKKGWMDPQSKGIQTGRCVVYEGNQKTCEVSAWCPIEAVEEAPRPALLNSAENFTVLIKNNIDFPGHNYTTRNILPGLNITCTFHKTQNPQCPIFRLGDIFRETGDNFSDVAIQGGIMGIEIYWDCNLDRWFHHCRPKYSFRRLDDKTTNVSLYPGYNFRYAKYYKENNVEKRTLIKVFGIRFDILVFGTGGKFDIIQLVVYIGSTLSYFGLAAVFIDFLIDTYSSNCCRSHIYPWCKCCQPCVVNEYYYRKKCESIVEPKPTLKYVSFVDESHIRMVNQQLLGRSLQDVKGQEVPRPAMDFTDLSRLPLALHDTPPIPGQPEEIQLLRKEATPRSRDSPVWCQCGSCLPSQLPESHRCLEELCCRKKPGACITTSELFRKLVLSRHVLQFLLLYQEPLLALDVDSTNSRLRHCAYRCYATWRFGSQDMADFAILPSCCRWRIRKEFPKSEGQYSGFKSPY

Molecular target: human P2X7 (Homo sapiens, UniProt Q99572)
Test: ATP-induced YO-PRO-1 dye uptake in HEK-hP2X7 cells
Format: cell-based
Conditions: read-out: IC50 value (95% CI)

## O=C(O[C@@H]1Cc2c(O)cc(O)cc2O[C@@H]1c1cc(O)c(O)c(O)c1)c1cc(O)c(O)c(O)c1 [EGCG, epigallocatechin gallate]
  IC50: < 10 µM and 2.39 µM
